In article PMC7893028:
These are yes or no findings as the source states them, for the method shown. In cells and extracts the contact can be indirect. Some binding calls cover weakened binding; strength is not graded here. For some of these results: Where a sequence is shown, tags or fusion partners need not be part of it.

The chains behind the UniProt entries cited, without tags or fusion partners. Residues count along the entry.
UniProt Q99MB1, residues 26-905: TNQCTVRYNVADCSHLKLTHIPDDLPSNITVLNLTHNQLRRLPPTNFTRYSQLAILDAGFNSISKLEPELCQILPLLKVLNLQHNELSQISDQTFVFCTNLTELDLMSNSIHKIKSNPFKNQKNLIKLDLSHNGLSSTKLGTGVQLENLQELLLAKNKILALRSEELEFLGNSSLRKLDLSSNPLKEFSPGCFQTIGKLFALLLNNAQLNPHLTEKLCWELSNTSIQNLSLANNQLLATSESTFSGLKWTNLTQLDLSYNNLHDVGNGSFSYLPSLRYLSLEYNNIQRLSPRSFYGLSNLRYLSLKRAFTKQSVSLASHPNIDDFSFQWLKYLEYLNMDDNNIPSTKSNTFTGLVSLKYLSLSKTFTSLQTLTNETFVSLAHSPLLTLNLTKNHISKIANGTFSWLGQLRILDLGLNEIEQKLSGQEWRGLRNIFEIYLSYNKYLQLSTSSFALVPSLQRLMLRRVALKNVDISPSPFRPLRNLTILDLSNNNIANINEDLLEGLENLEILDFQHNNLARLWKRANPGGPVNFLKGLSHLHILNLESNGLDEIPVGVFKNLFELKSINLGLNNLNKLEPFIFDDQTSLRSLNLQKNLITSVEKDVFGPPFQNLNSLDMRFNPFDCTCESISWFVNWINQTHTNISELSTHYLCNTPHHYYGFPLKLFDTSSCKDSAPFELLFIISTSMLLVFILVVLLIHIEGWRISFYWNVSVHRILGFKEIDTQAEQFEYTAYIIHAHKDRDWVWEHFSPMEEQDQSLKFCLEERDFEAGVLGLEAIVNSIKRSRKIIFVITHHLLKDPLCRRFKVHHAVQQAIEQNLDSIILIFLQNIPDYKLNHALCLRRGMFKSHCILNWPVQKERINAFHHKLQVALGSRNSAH
UniProt O15455, residues 24-904: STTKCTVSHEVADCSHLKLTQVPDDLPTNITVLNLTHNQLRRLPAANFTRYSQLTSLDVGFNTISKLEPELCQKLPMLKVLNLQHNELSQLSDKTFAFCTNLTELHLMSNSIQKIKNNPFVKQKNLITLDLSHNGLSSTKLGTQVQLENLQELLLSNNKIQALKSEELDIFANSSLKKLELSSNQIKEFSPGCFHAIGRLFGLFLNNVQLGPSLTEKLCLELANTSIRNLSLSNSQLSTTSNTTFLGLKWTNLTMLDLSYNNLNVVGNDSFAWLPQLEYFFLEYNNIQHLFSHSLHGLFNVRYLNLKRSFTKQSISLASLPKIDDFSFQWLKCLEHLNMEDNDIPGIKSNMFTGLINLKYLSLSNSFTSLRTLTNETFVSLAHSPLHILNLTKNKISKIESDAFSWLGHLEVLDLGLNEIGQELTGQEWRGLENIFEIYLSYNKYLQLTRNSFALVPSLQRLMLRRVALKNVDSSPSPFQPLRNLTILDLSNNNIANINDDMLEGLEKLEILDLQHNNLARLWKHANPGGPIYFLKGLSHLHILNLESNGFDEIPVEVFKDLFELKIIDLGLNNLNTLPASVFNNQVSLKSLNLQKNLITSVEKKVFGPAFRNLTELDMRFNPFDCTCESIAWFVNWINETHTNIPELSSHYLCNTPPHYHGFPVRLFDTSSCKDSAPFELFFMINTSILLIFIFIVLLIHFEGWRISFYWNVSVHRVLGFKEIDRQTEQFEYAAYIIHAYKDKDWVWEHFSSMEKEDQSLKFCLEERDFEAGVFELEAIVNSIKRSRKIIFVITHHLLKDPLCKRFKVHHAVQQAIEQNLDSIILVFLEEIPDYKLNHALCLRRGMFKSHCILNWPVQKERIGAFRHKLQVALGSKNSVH

Key:
[1] = biological target: Mouse TLR3, endogenous in BMDMs (mouse (endogenous in BMDMs)) (UniProt Q99MB1); experiment: FRET or BRET; FLIM-FRET in BMDMs of ROSA-CLEC18A/CLEC18A(S339R) knock-in mice; preincubated with TLR3/dsRNA complex inhibitor (various concentrations) for 1 h, then HMW poly (I:C) 25 μg/ml for 2 h
[2] = biological target: Flag-tagged human TLR3, full-length (pFlag-CMV1-hTLR3) (human) (UniProt O15455); experiment: co-IP; 293T cells co-transfected with HA-CLEC18A or HA-CLEC18A(S339R) and Flag-TLR3 (full-length or deletion mutants), 48 h; lysates precipitated with anti-Flag mAb Sepharose beads, blot with anti-HA and anti-Flag; isotype mAb beads as control

| Binder | binding [1] | binding [2] |
| --- | --- | --- |
| HA-tagged human CLEC18A (pMACS.Kk-HA(C)-hCLEC18A) (protein, UniProt A5D8T8 27-446) EVWPPQLQEQAPMAGALNRKESFLLLSLHNRLRSWVQPPAADMRRLDWSDSLAQLAQARAALCGTPTPSLASGLWRTLQVGWNMQLLPAGLVSFVEVVSLWFAEGQRYSHAAGECARNATCTHYTQLVWATSSQLGCGRHLCSAGQAAIEAFVCAYSPRGNWEVNGKTIVPYKKGAWCSLCTASVSGCFKAWDHAGGLCEVPRNPCRMSCQNHGRLNISTCHCHCPPGYTGRYCQVRCSLQCVHGRFREEECSCVCDIGYGGAQCATKVHFPFHTCDLRIDGDCFMVSSEADTYYRARMKCQRKGGVLAQIKSQKVQDILAFYLGRLETTNEVIDSDFETRNFWIGLTYKTAKDSFRWATGEHQAFTSFAFGQPDNHGFGNCVELQASAAFNWNDQRCKTRNRYICQFAQEHISRWGPGS | – | binds |
| HA-tagged human CLEC18A(S339R) (pMACS.Kk-HA(C)-hCLEC18A(S339R)) (protein, UniProt A5D8T8 27-446) EVWPPQLQEQAPMAGALNRKESFLLLSLHNRLRSWVQPPAADMRRLDWSDSLAQLAQARAALCGTPTPSLASGLWRTLQVGWNMQLLPAGLVSFVEVVSLWFAEGQRYSHAAGECARNATCTHYTQLVWATSSQLGCGRHLCSAGQAAIEAFVCAYSPRGNWEVNGKTIVPYKKGAWCSLCTASVSGCFKAWDHAGGLCEVPRNPCRMSCQNHGRLNISTCHCHCPPGYTGRYCQVRCSLQCVHGRFREEECSCVCDIGYGGAQCATKVHFPFHTCDLRIDGDCFMVSSEADTYYRARMKCQRKGGVLAQIKRQKVQDILAFYLGRLETTNEVIDSDFETRNFWIGLTYKTAKDSFRWATGEHQAFTSFAFGQPDNHGFGNCVELQASAAFNWNDQRCKTRNRYICQFAQEHISRWGPGS | – | binds |

Next, values leading:

| binding [1] | binding [2] | Binder |
| --- | --- | --- |
| binds | – | Human CLEC18A expressed in BMDMs of ROSA-CLEC18A knock-in mice (protein, UniProt A5D8T8 27-446) EVWPPQLQEQAPMAGALNRKESFLLLSLHNRLRSWVQPPAADMRRLDWSDSLAQLAQARAALCGTPTPSLASGLWRTLQVGWNMQLLPAGLVSFVEVVSLWFAEGQRYSHAAGECARNATCTHYTQLVWATSSQLGCGRHLCSAGQAAIEAFVCAYSPRGNWEVNGKTIVPYKKGAWCSLCTASVSGCFKAWDHAGGLCEVPRNPCRMSCQNHGRLNISTCHCHCPPGYTGRYCQVRCSLQCVHGRFREEECSCVCDIGYGGAQCATKVHFPFHTCDLRIDGDCFMVSSEADTYYRARMKCQRKGGVLAQIKSQKVQDILAFYLGRLETTNEVIDSDFETRNFWIGLTYKTAKDSFRWATGEHQAFTSFAFGQPDNHGFGNCVELQASAAFNWNDQRCKTRNRYICQFAQEHISRWGPGS |
| binds | – | Human CLEC18A(S339R) expressed in BMDMs of ROSA-CLEC18A(S339R) knock-in mice (protein, UniProt A5D8T8 27-446) EVWPPQLQEQAPMAGALNRKESFLLLSLHNRLRSWVQPPAADMRRLDWSDSLAQLAQARAALCGTPTPSLASGLWRTLQVGWNMQLLPAGLVSFVEVVSLWFAEGQRYSHAAGECARNATCTHYTQLVWATSSQLGCGRHLCSAGQAAIEAFVCAYSPRGNWEVNGKTIVPYKKGAWCSLCTASVSGCFKAWDHAGGLCEVPRNPCRMSCQNHGRLNISTCHCHCPPGYTGRYCQVRCSLQCVHGRFREEECSCVCDIGYGGAQCATKVHFPFHTCDLRIDGDCFMVSSEADTYYRARMKCQRKGGVLAQIKRQKVQDILAFYLGRLETTNEVIDSDFETRNFWIGLTYKTAKDSFRWATGEHQAFTSFAFGQPDNHGFGNCVELQASAAFNWNDQRCKTRNRYICQFAQEHISRWGPGS |
